Assay results as given in patent publication US20240327540A1.
Results are given in words; binding and its absence hold for the method and conditions named. Some results given as binding are weak or reduced against the parent protein; the word gives no strength.

Chains of the proteins cited; added tags and fusions are not shown. Lines headed by an entry give the natural chain unless they say otherwise; changes in a name come on top.
UniProt Q9UNK4: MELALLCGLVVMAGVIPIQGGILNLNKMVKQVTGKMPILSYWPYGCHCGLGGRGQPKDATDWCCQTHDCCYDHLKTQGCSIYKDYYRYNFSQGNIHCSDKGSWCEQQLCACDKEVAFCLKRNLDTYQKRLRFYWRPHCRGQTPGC

Legend:
[1] = molecular target: human PLA2G2D (human) (UniProt Q9UNK4); assay: ELISA / flow cytometry screening of hybridoma antibodies
[2] = molecular target: human PLA2G2D (human) (UniProt Q9UNK4); assay: assay not given

Row | Binder | binding [1] | binding [2]
1 | 48.55A7.A10 (antibody, V domains shown) VH: EVQLVESGGGLVQPGRSLKLSCAASGFSFNDYNMAWVRQAPTKGLEWVASISTGGANTYCRDSVKGRFTLSRDNAKNTLYLQMDSLKSEDTATYYCARHDTIRVDAWGQGASVTVSS VL: SYELIQPPSASVTLENTVSITCSGDELSNKYAHWYQQKPDKTILEVMYKDSERPSGISDRFSGSSSGTTAILTIRDAQAEDEADYYCLSTYSDDDLPVFGGGTKLTVL | binds | binds
2 | 48.9C4.E4 (antibody, V domains shown) VH: EVRLVESGGGLVQPGRSLKLSCAASGFTFNDYNMAWVRHPPTKGLEWVASISTGGDNTYCRDSVKGRFTLSRDNAKNTLYLQMDSLKSEDTATYYCVRHDTIRVDAWGQGASVTVSS VL: SYELIQPPSASVTLENTVSITCSGDELSNKYAHWYQQKPDKTILEVMYKDSERPSGISDRFSGSSSGTTAILTIRDAQAEDEADYYCLSTYSDDDLPVFGGGTKLTVL | binds | binds
3 | 48.4B12.F8 (antibody, V domains shown) VH: QVQLKESGPGLVQPSQTLSLTCTVSGFSLTNNGVSWVRQPPGKGLEWIAAISSGGSTYYNSDLKSRLSIGRDTSKSQVFLEMNSLQTEDTAIYFCTRVGDDRFDYWGQGVMVTVSS VL: SYELIQPPSASVTLENTVSITCSGDELSNKYVHWYQQKPDKTILEVMYKDSERPSGISDRFSGSSSGTTAILTIRDAQAEDAADYYCLSTYCDDDLPVFGGGTKLTVL | binds | binds
4 | 44.25D8.D4 (antibody, V domains shown) VH: QVTLKESGPGILQSSQTLSLTCSFSGFSLSTSGMAVSWIRQPSGKGLEWLAHIYWDDDKRYNPSLKSRLTISKDTSRNQVFLKITSVDTTDTATYYCARRGPGTWYFDVWGTGTTVTVSS VL: QIVLTQSPAIMSASPGEKVTISCSASSSVVYMYWYQQQPGSSPKPWIYRTSNLASGVPARFSGSGSGTSYSLTISSMEAEDAATYYCQQYHSSPLTFGAGTKLELK | binds | binds
5 | 44.92F6.C9 (antibody, V domains shown) VH: QVTLKESGPGILQSSQTLSLTCSFSGFSLSTSPMGVSWIRQPSGKGLEWLAHIYWDDDKRYNPSLKSRLTISRDTSRNQVFLKITTVDTADTATYFCARRRGDSFYFDYWGQGTTLTVSS VL: QIVLTQSPAIMSASPGEKVTISCSASSSVSYMYWYQQKPGSSPKPWIYRTSNLASGVPARFSGSGSGTSYSLTISSMEAEDAATYYCQQYHSYPLTFGAGTKLELK | binds | binds
6 | 47.25C3.C5 (antibody, V domains shown) VH: QVTLKESGPGILQSSQTLSLTCSFSGFSLSTSRMGVSWIRQSSRKGLEWLAHIYWDDDKRYDPSLKSRLTISKDTSRNQVFLKITSVDTADTATYYCARRALSDYGSDFYFDVWGTGTTVTVSS VL: QIVLTQSPAIMSASPGEKVTISCSASSIVSYMYWYQQKPGSSPKPWIYRTSTLASGVPARFSGSGSGTSYSLTISSMEAEDAATYYCQQYHTYPLTFGAGTKLELK | binds | binds
7 | 44.7A3.E10 (antibody, V domains shown) VH: QVTLKESGPGILQSSQTLSLTCSFSGFSLSTSGMGVAWIRRPSGKGLEWLAHIYWDDDKRYNPSLKSRLTISKDTSRNQVFLKITSVDTADTATYYCARRGPGTWYFDVWGTGTTVTVSS VL: QIVLTQSPAIMSASPGEKVTISCSASSSVSYMYWYQQKPGSSPKPWIYRTSNLASGVPARFSGSGSGTSYSLTISSMEAEDAATYYCQQYHSSPLTFGAGTKLELK | binds | binds
8 | 47.17G1.E12 (antibody, V domains shown) VH: QVTLKESGPGILQSSQTLSLTCSFSGFSLSTSRMGVSWIRQPSRKGLEWLAHIYWDDDKRYNPSLKSRLTISKDTSRNQVFLRINNVDTADTATYYCARRALYDYGADFYFDVWGTGTTVTVSS VL: QIVLTQSPAIMSAFPGEKVTISCSASSSVSYMYWYQQKPGSSPKPWIYRTSNLASGVPARFSGSGSGTSYSLTISSMEAEDAATYYCQQYHTYPLTFGAGTKLELK | binds | binds
9 | 44.93D1.E7 (antibody, V domains shown) VH: QVQLQQSGAELVRPGASVTLSCKASGYTFTDYDMHWVKQTPVHGLEWIGAIDPETGGTTYNQKFKGKAILTADKSSSTAYMELRSLTSEDSAVYYCTRLAWFAYWGQGTLVTVSA VL: ETTVTQSPASLSMAVGEKVTIRCITSTDIDDDMNWFHQKPGEPPKLLISEGNTLRPGVPSRFSSSGYGTDFVFTIENMLSEDVADYYCLQSDNLPLTFGAGTKLELK | binds | binds

Other lines, results leading:

Row | binding [1] | binding [2] | Binder
10 | binds | binds | 48.60E11.A7 (antibody, V domains shown) VH: QVQLKESGPGLVQPSQTLSLTCTASGFSLTTNGVSWVRQPPGKGLEWIAAISSGGSTYYNSALKTRLSISRDTSKSQVFLKMNSLQTKDTAIYFCTSAGGNRFAYWGQGTLVTVSS VL: SYELIQPPSASVTLENTVSITCSGDELSNKYTHWFQQKPDKTILEVMYKDSERPSGISDRFSGSSSGTTAILTIRDAQAEDEADYYCLSSYTDDDILVFGGGTKLTVL
11 | binds | binds | 44.20H2.A8 (antibody, V domains shown) VH: QVTLKESGPGILQSSQTLSLTCSFSGFSLNTSGMAVSWIRQSSGKGLEWLAHIYWDDDKRYNPSLKSRLTISKDISRNQVFLKITSVDTADTATYFCARREGDWYFDVWGTGTTVTVSS VL: QIVLTQSPAIMSASPGEMVTISCSASSRISYMYWYQQKPGSSPKPWIFRTSNLASGVPTRFSGSGSGTSYSLTISSMEAEDAATYYCQQYHTSPLTFGAGTKLELK
12 | binds | binds | 44.110G5.B6 (antibody, V domains shown) VH: QVTLKESGPGILQSSQTLSLTCSFSGFSLSTSGLGVSWIRQPSGKGLEWLAHIYWDDDKRYNPSLKSRLTISKDTSRNQVFLKITSVDTADTATYYCARRRSLYFYFDVWGTGTTVTVSS VL: QIVLTQSPTIMSASPGEKVTISCSAISSVSYMYWYQQKPGSSPKPWIYRTSNLASGVPARFSGSGSGTSYSLTISSMEAEDAATYYCQQYHSYPPTFGSGTKLEIK
13 | binds | binds | 44.8A6.A9 (antibody, V domains shown) VH: QVILKESGPGILQSSQTLSLTCSFSGFSLSTSGMGVSWIRQPSGKGLEWLAHIYWDDDKRYNPSLKSRLTISKDTSRNQVFLKVTSVDTTDTATYYCARRASGDYSNFGFAYWGRGTLVTVSA VL: QIVLTQSPAIMSASPGEKVTISCSASSSVSYMYWYQQKPGSSPKPWIYRTSILASGVPARFSGSGSGTSYSLTISSMEAEDAATYYCQQYHSYPPTFGGGTKLEIK
14 | binds | binds | 44.101H5.B4 (antibody, V domains shown) VH: QVTLKESGPGILQSSQTLSLTCSLSGFSLSTSGMGVSWIRQPSGKGLEWLAHIYWDDDKRYNPSLKSRLTISKDTSRNQVFLKITSVDTADTATYYCARRESRYFYFDYWGQGATLTVSS VL: QIVLTQSPAIMSASPGEKVTISCSASSSVSYMYWYQQKPGSSPKPWIFRTSNLASGVPARFSGSGSGTSYSLTISSMEAEDAATYYCQQYHSYPPTFGSGTKLEIK
15 | binds | binds | 44.96D4.C4 (antibody, V domains shown) VH: QVTLKESGPGILQSSQTLSLTCSFSGFSLSTSGMGVSWIRQPSGKGLEWLAHIYWDDDKRYNPSLKSRLSISKDTSRNQVFLKITSVDTVDTATYYCARRESKYFYFDYWGQGTTLTVSS VL: QIVLTQSPSIMSASPGEKVTISCSASSSVSYMYWYQQKPGSSPKPWIYRTSNLASGVPARFSGSGSGTSYSLTISSMEAEDAATYYCQQYHSYPPTFGSGTKLEIK
16 | binds | binds | 44.102H3.E12 (antibody, V domains shown) VH: QVTLKESGPGILQSSQTLSLTCSFSGFSLSTSGMGVSWIRQPSGKGLEWLAHIYWDDDKRYNPSLKSRLTISKDTSRNQVFLKITNVDTADTATYFCARRASVDFYFDYWGQGSNLTVSS VL: QIVLTQSPAIMSASPGEKVTISCSAGSSVSFMYWYQQKPGSSPKPWIYRTSNLASGVPARFSGSGSGTSYSLTISSMEAEDAATYYCQHYHSYPPTFGGGTKLEIK
17 | binds | binds | 44.19A6.A10 (antibody, V domains shown) VH: QVTLKESGPGILQSSQTLSLTCSFSGFSLTTSGMGVGWIRQPSGKGLEWLAHIYWDDDKRYNPSLKSRLTISKDTSRNQVFLKITSVDTTDTATYYCARRGPGTWYFDVWGTGTTVTVSS VL: QIVLTQSPAIMSASPGEKVTISCSASSSVSYMYWYQQKPGSSPKPWIYRTSNLASGVPARFSGSGSGTSYSLTISSMEAEDAAAYYCQQYHSSPLTFGAGTKLELK
18 | binds | binds | 44.19B8.H11 (antibody, V domains shown) VH: QVTLKESGPGILQSSQTLSLTCSFSGFSLSTSSMGVSWIRQPSGKGLEWLAHIYWDDDKRYNPSLKSRLTISKDTSRNQVFLKISNVDTADAATYYCARRAGNFFYFDVWGTGTTVTVSS VL: QIVLTQSPAIMSASPGEKVTISCSASSSVSYMYWYQQKPGSSPKPWIYRTSNLASGVPARFSGSGSGTSYSLTISSMEAEDAATYYCQQYHTYPPTFGGGTKLEIK
19 | binds | binds | 44.7F10.F2 (antibody, V domains shown) VH: QVTLKESGPGILQSSQTLSLTCSFSGFSLSTSGMGVSWIRQPSGKGLEWLTHIYWDDDKRYNPSLKSRLTISKDTSRNQVFLKITSVDTADTATYYCARRAVKDWYFDVWGTGTTVTVSS VL: QIVLTQSPAIMSASPGEKVTISCSASSSVSYMYWYQQKPGSSPKPWIYRTSNLASGVPARFSGSGSGTSYSLTISSMEAEDAATYYCQQYHSYPPTFGSGTKLEIK
20 | binds | binds | 47.17B2 (antibody, V domains shown) VH: QVTLKESGPGILQSSQTLSLTCSFSGFSLNTSPLGVSWIRQPSGKGLEWLAHIYWDDDKRYNPSLQNRLTISKDTSRNQVFLKISSVDTADTATYYCARRDGSNFYFDYWGQGTTLTVSS VL: QIVLTQSPAIMSASPGEKVTISCSASSTVRYIYWYYQKPGSSPTPWIYRTSNLAFGVPARFSGSGSGTSYSLTISSMEAEDAATYYCQQYHSFPLTFGAGTKLELK
